# The other results are listed elsewhere or left out.
# Sequences of proteins named here, by UniProt entry; tags and fusion partners are left off.
# UniProt Q0JBA9, entry or part of it: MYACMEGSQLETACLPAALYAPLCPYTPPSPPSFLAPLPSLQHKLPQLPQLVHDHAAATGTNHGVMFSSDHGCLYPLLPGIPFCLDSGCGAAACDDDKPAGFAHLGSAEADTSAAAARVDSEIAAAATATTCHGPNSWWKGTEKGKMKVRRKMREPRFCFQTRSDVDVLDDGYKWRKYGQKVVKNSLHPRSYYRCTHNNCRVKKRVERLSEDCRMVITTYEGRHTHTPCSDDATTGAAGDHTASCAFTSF
# Biological target: OsWRKY34 (Oryza sativa, UniProt Q0JBA9 1-250)
# Assay: protein-binding microarray (RPBM); PBS, 2% BSA, 51.3 ng/ul salmon testes DNA, 50 uM zinc acetate, 200 nM TF, 25 C, 1 h; high values mean tight binding
# Settings: protein: recombinant; tags: N-terminal polyhistidine and DsRed monomer fusion (pET32a); label: CyDye5-dUTP incorporated in the synthesized complementary strand; 3' TTTTT single-stranded linker to array surface; dsDNA, one strand shown
# Outline: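 Transcription factors were each fused at the N-terminus to a polyhistidine tag plus DsRed and expressed in E. coli BL21-CodonPlus before Ni–NTA purification. Binding to a double-stranded custom Agilent array was carried out with 200 nM protein at 25 °C for 1 h in PBS, 2% BSA, salmon testes DNA and 50 µM zinc acetate. The binding signal is per-feature fluorescence intensity, in arbitrary units, on an Axon 4000B scanner.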
row,Sequence,binding signal
1,AATTACGTGCTAATAGGCCGCCCCGTTTTCCGTACGCACTCGGAGTCACCTAGTGCAG,10300 fluorescence intensity (a.u.)
2,GAGCTCTCTGCTCTTCCATTGCTAGTTTTGCTTCATTTCCCGGAGTCACCTAGTGCAG,8260 fluorescence intensity (a.u.)
3,GAGCCATCCCGTCCCATCACGACGCATTGCTGCCGCGGCCCGGAGTCACCTAGTGCAG,9640 fluorescence intensity (a.u.)
4,TATCCACTTCGCTCTCTTCTCTGCAGCGCTGCATCCTACTCGGAGTCACCTAGTGCAG,10800 fluorescence intensity (a.u.)
5,ATAGATGACGCTGTTGATTTTTTTCTCACATGTTTGACCACGGAGTCACCTAGTGCAG,10400 fluorescence intensity (a.u.)
6,TTCTTTTTCTTTTGCTTTGGCCGGCGTTTCATCGCGCGGGCGGAGTCACCTAGTGCAG,9240 fluorescence intensity (a.u.)
7,TGCTTCACATCTCCGTCCAGTCCCTACCGTATACTACTATCGGAGTCACCTAGTGCAG,15100 fluorescence intensity (a.u.)
8,GGAGGAGAGAGGGGTGGGGTTTGTGGTGTCGTCGTCCATGCGGAGTCACCTAGTGCAG,11700 fluorescence intensity (a.u.)
9,ATGGTGGGCTGTGGGTGCATGGTTTTGCTGGTCGCACCCACGGAGTCACCTAGTGCAG,11100 fluorescence intensity (a.u.)
10,GCCTCGCCCAGATCACCGGCCGCTACTTCCTCTGCCGCAGCGGAGTCACCTAGTGCAG,10700 fluorescence intensity (a.u.)
11,TTGACTGGAGGTCTGTATAAGACATAAGTCCACTTGCATTCGGAGTCACCTAGTGCAG,9420 fluorescence intensity (a.u.)
12,ACTTATTCCCTGTACTGACCATCCCGTTCCGCATTCCCACCGGAGTCACCTAGTGCAG,11000 fluorescence intensity (a.u.)
13,CCCGCTGCAACCGCTACCACCTGCATCTACTGCTGCTGACCGGAGTCACCTAGTGCAG,8930 fluorescence intensity (a.u.)
14,TCAAAATGTTAAATGGTATATTACTACTCCCTCCGTACTCCGGAGTCACCTAGTGCAG,8150 fluorescence intensity (a.u.)
15,CTCTCTCTCTCCACACGCGCAGCTTTTTGCTTCTGCAATTCGGAGTCACCTAGTGCAG,9780 fluorescence intensity (a.u.)
16,TACCATTTCTACGATGTATCTTCCTATTTTTCCATCACATCGGAGTCACCTAGTGCAG,8890 fluorescence intensity (a.u.)
17,CAAACTTCTAATTTTTCCGTCACATCAAATGTTTGGATATCGGAGTCACCTAGTGCAG,34900 fluorescence intensity (a.u.)
18,ATGCTTGATTCGTCGGGATCGACAAATTTGTACCGTGTATCGGAGTCACCTAGTGCAG,8130 fluorescence intensity (a.u.)
19,TGTTCTCATGTTCTTTCCATATTCGAGTCTCCGTAATCCCCGGAGTCACCTAGTGCAG,9750 fluorescence intensity (a.u.)
20,TCTGACTCTCCAACCTCCCGTCCTTGGTCCTTACACGCAACGGAGTCACCTAGTGCAG,8200 fluorescence intensity (a.u.)
21,GTGATTAAAACGGTTTCCGGTTAGCTGCGTGCTCTATTTCCGGAGTCACCTAGTGCAG,9060 fluorescence intensity (a.u.)

# Reformatted with bars between the fields: entries from further up.
row | Sequence | binding signal
2 | GAGCTCTCTGCTCTTCCATTGCTAGTTTTGCTTCATTTCCCGGAGTCACCTAGTGCAG | 8260 fluorescence intensity (a.u.)
11 | TTGACTGGAGGTCTGTATAAGACATAAGTCCACTTGCATTCGGAGTCACCTAGTGCAG | 9420 fluorescence intensity (a.u.)
15 | CTCTCTCTCTCCACACGCGCAGCTTTTTGCTTCTGCAATTCGGAGTCACCTAGTGCAG | 9780 fluorescence intensity (a.u.)

# A section of the results above, as a working copy:
row,Sequence,binding signal
3,GAGCCATCCCGTCCCATCACGACGCATTGCTGCCGCGGCCCGGAGTCACCTAGTGCAG,9640 fluorescence intensity (a.u.)
4,TATCCACTTCGCTCTCTTCTCTGCAGCGCTGCATCCTACTCGGAGTCACCTAGTGCAG,10800 fluorescence intensity (a.u.)
5,ATAGATGACGCTGTTGATTTTTTTCTCACATGTTTGACCACGGAGTCACCTAGTGCAG,10400 fluorescence intensity (a.u.)

# Later entries:

row,Sequence,binding signal
1,ACCTTGTAGTCAAGGAGCATCTGGGGCATCTTCTTCATCACGGAGTCACCTAGTGCAG,9010 fluorescence intensity (a.u.)
2,TCACATATTTTATCCATTTAAGTTTAATTTTTCTATGGTTCGGAGTCACCTAGTGCAG,9370 fluorescence intensity (a.u.)
3,GTACAACCGATTGGGCTCTCAATTCTTCTTCACATGCTTCCGGAGTCACCTAGTGCAG,11000 fluorescence intensity (a.u.)
4,GGCTGGAGGAAGAGTGGGGTGGCGCGTCGCTGGTCCGCAACGGAGTCACCTAGTGCAG,8040 fluorescence intensity (a.u.)
5,GCTAGTATCCCTCGTGACAAGTGACACCTGTTTTTTATTACGGAGTCACCTAGTGCAG,8620 fluorescence intensity (a.u.)
6,CATCATCCACCCCGACCTCCGCCTCCGCCTCCGCCCGCCGCGGAGTCACCTAGTGCAG,9930 fluorescence intensity (a.u.)
7,CTCCGTTTTCTACGCGGATAGCTTGGGTTGGTAACCATGTCGGAGTCACCTAGTGCAG,10600 fluorescence intensity (a.u.)
8,ACCTCGCTCGCCCGCCCGCCCGCCTCCGCCTCCGCCAATGCGGAGTCACCTAGTGCAG,8810 fluorescence intensity (a.u.)
9,CTACCTTTTATTTTCACCGGAGTTAGATTTCCATAAAAAACGGAGTCACCTAGTGCAG,8810 fluorescence intensity (a.u.)
10,TTTAAACTTGATAATTTTTTACTAATATTTCCATCGTTTTCGGAGTCACCTAGTGCAG,10000 fluorescence intensity (a.u.)
11,TTATATCTCTCATTCGATTCTTGCGTTTTTCTGCGGCCAACGGAGTCACCTAGTGCAG,8180 fluorescence intensity (a.u.)
12,TTTTCACTCATCAGATTTTGTTTATTCGTACTGCGTCGCCCGGAGTCACCTAGTGCAG,8940 fluorescence intensity (a.u.)
13,CCCAAATCGATCCATTTTTTGCCTCACTTAATCTCTCGCTCGGAGTCACCTAGTGCAG,9030 fluorescence intensity (a.u.)
14,TTGGTGGTGAAGGGGAGGGCGCATGCGACGTGGAGGGTGTCGGAGTCACCTAGTGCAG,9120 fluorescence intensity (a.u.)
15,AATGTGTGTTTATTTTTATTATAATACTGTATTTGTCTTTCGGAGTCACCTAGTGCAG,11000 fluorescence intensity (a.u.)
16,GGCTGCCTCCTCTCCTCATCCCTGCACCTACACTCCAATACGGAGTCACCTAGTGCAG,8530 fluorescence intensity (a.u.)
17,CCCATACATTACCTGTTGCTTTTTTTATGGCCCTTCTTTTCGGAGTCACCTAGTGCAG,9710 fluorescence intensity (a.u.)
18,TGTGTTCCTTTTCCTCCCATTTGATTATTTCAATCTTACACGGAGTCACCTAGTGCAG,8180 fluorescence intensity (a.u.)
19,AAATAACGGTTCGGTTCACTTGTAATTTATCCCGTTGTTACGGAGTCACCTAGTGCAG,10500 fluorescence intensity (a.u.)
20,CTCTCACACACACACACCGATTAACTTGCTGGATTCCATACGGAGTCACCTAGTGCAG,10400 fluorescence intensity (a.u.)
21,AGCGTGTTTACTACTCTTATTGCTACTAGTACGTGTGTTTCGGAGTCACCTAGTGCAG,9110 fluorescence intensity (a.u.)

row,Sequence,binding signal
1,TGTAGACGGCCGGTCACACTATCTTTATGCTGAGTCATGTCGGAGTCACCTAGTGCAG,8910 fluorescence intensity (a.u.)
2,GCTTGCCTGCTTGGGCGGCAGCTTGGATTCCCACGTTTTCCGGAGTCACCTAGTGCAG,8220 fluorescence intensity (a.u.)
3,CAATCTCATTAGCTATCTATTTCATTAGTTCTCTATTGTACGGAGTCACCTAGTGCAG,8100 fluorescence intensity (a.u.)
4,CCGCTCGCGCCGCCCCTCGCCGTCGCCCGTCGCCGGCGCCCGGAGTCACCTAGTGCAG,12000 fluorescence intensity (a.u.)
5,GAATAAGACGAACGGTCAAACATGTGCTAAAAAGTCAACGCGGAGTCACCTAGTGCAG,13400 fluorescence intensity (a.u.)
6,CCTTGCATCAGTTAGTCAACTGCTTTAGTAGTTCTGTTACCGGAGTCACCTAGTGCAG,9540 fluorescence intensity (a.u.)
7,AGAGGGTGGTAAGTGGGCTGCGAGCTAGAGCGTATATTCTCGGAGTCACCTAGTGCAG,8630 fluorescence intensity (a.u.)
8,ACACACTAGCTCCTAGCTTGGCTCTCACTCTCTCTCTAGACGGAGTCACCTAGTGCAG,8280 fluorescence intensity (a.u.)
9,TGTCACGCAAGCCGTAATCCCGTTCCGGGCCATTGGCCCACGGAGTCACCTAGTGCAG,8630 fluorescence intensity (a.u.)
10,TCTTTCTTTGTTGTTGCTATGGCTGAGCGAGGGAGCCAAACGGAGTCACCTAGTGCAG,9460 fluorescence intensity (a.u.)
11,TTTTGCTAGTTATCATTTATTTGTCATTTATTTTGCTAGTCGGAGTCACCTAGTGCAG,8050 fluorescence intensity (a.u.)
12,GCATTTCTTACATGTAGAGTGTCTTCTCCATTTCGTACCACGGAGTCACCTAGTGCAG,9540 fluorescence intensity (a.u.)
13,TACGTATCTACTATAGTCTTATCATCAGTGTATAAGTGACCGGAGTCACCTAGTGCAG,8340 fluorescence intensity (a.u.)
14,AGTCGATCGATCTTCTTCCGCCGCCTGCGTACGCCCATCTCGGAGTCACCTAGTGCAG,11700 fluorescence intensity (a.u.)
15,CTGGTCATCATTTCACACCCATATACTGTGTCCAAAGTCCCGGAGTCACCTAGTGCAG,8060 fluorescence intensity (a.u.)
16,TCATCTCCTCGTCTCGCCCCGCTCCAAGCGCGCCGCCATGCGGAGTCACCTAGTGCAG,9370 fluorescence intensity (a.u.)
17,TTCACAACACTTGTACACTCGCTCCTATGAACGGATGCACCGGAGTCACCTAGTGCAG,10200 fluorescence intensity (a.u.)
18,TTGCCTTGTCGCAGCACGGCGGCCGCCCTATCTCTACCTCCGGAGTCACCTAGTGCAG,10200 fluorescence intensity (a.u.)
19,GTTGCTGTGTTCTGTCTTCTCCATAGACAGTGTAGTGATTCGGAGTCACCTAGTGCAG,9330 fluorescence intensity (a.u.)
20,ACTCTTCCGCACCAACCTGGATGTTTATTACGCTCCATCACGGAGTCACCTAGTGCAG,11200 fluorescence intensity (a.u.)
21,TTTGGTTGAGCGTATATATATGTTTGTGTGGCATCTTTTTCGGAGTCACCTAGTGCAG,8910 fluorescence intensity (a.u.)

row,Sequence,binding signal
1,AATTAATCATGAGCTAATAGCTCACCTCGTTTTGCGTATCCGGAGTCACCTAGTGCAG,8800 fluorescence intensity (a.u.)
2,TATCCACCACCTAGTTGCTGCCACCTCCTGAGAACCAAGCCGGAGTCACCTAGTGCAG,8810 fluorescence intensity (a.u.)
3,ATGGTGTTTCTTAATTGCTTTTTGCCTTTTATTATATCTACGGAGTCACCTAGTGCAG,8510 fluorescence intensity (a.u.)
4,AGAACCAATCCATCTTTACTGAACTTCTTTGGCATTCATTCGGAGTCACCTAGTGCAG,12000 fluorescence intensity (a.u.)
5,CTCTATAGACCGCTTGAACATCATTTATTATTTATTTTTACGGAGTCACCTAGTGCAG,8830 fluorescence intensity (a.u.)
6,AACTAGCTAAGTCCGAATCCAACACGAGTCCATCAGCTCACGGAGTCACCTAGTGCAG,8620 fluorescence intensity (a.u.)
7,TGTGCCAGCCACCATGCACCAGCCGGCTACCTAGCGGCTCCGGAGTCACCTAGTGCAG,8030 fluorescence intensity (a.u.)
8,GTTGCTTCTCCATCTTGGCGGGCCCCACAGTTTCCTCGAGCGGAGTCACCTAGTGCAG,11100 fluorescence intensity (a.u.)
9,TCTGCCGCTGCTACGCTGGATACACACGCGCTCGCTTTCTCGGAGTCACCTAGTGCAG,10100 fluorescence intensity (a.u.)
10,GGCAAAGTCTTTCTGGCACTATAGCTCTATTATTGCAGTTCGGAGTCACCTAGTGCAG,8570 fluorescence intensity (a.u.)
11,ATTGTTTTGCATTTACTATTAATTTTACTTTGAGGTTATTCGGAGTCACCTAGTGCAG,8930 fluorescence intensity (a.u.)
12,TGTGGGTAGTATAGGTATATTGTAGGAATGTTATCAAATTCGGAGTCACCTAGTGCAG,9520 fluorescence intensity (a.u.)
13,GCTACACTTAACGCTGTCCACAACTCCACATACGCGTTACCGGAGTCACCTAGTGCAG,8440 fluorescence intensity (a.u.)
14,ATTTGTTCTTTTGGATCTGTTGTATTTAGATTATTCCTATCGGAGTCACCTAGTGCAG,8890 fluorescence intensity (a.u.)
15,CTCCGTCCCATAATATAAGGGATTTTGACTTTTTACTTGCCGGAGTCACCTAGTGCAG,11200 fluorescence intensity (a.u.)
16,GGTTGATCATTTGCGGCTTGTCTTGCTTCTCGTGCCGCTGCGGAGTCACCTAGTGCAG,8240 fluorescence intensity (a.u.)
17,GGGGCTGATACATTTATGATCTTTTCTTCCTTCCTTTCCTCGGAGTCACCTAGTGCAG,10900 fluorescence intensity (a.u.)
18,ATGGCCACGCCTCCACCCGTCACTTCGCTGCATCGCTGACCGGAGTCACCTAGTGCAG,9700 fluorescence intensity (a.u.)
19,CCACCGCCGCTTCGCTTCACTCTCGCGTTCGAGTCACACACGGAGTCACCTAGTGCAG,10000 fluorescence intensity (a.u.)
20,GCAATTCTTGCGGGTTTGTGTTTTTTTTTTCTTCTTCTTCCGGAGTCACCTAGTGCAG,8030 fluorescence intensity (a.u.)
21,ATCTCTCTCATATTCCTTCGATCTGCAGCTTGTACGTTGGCGGAGTCACCTAGTGCAG,14500 fluorescence intensity (a.u.)
